Results are given in words; binding and its absence hold for the method and conditions named.
Columns and labels:
Test in all cases: ELISA, protein coated at 1 µg/mL
[1] = target: Factor Eight
[2] = target: CD40.his
[3] = target: VEGFR2.his
[4] = target: OX40.his
[5] = target: CD3.his
[6] = target: FGFR.his
[7] = target: CD22.his
[8] = target: CTLA4.his
[9] = target: 4-1B8.his
[10] = target: CD147.his
[11] = target: VEGF.his

Measured: binding

B1: W3455-4.9.9-uIgG4.SPL (antibody, V domains shown)
VH: EVQLLESGGGLVQPGGSLRLSCAASGFTFSNFAMSWVRQAPGKGLEWVSTISASGGRTFYADSVKGRITISRDNSKNTLFLQMNGLRAEDTAVYYCAKEGSFGEGVDPWGQGTLVTVSS
VL: SYEMTQPPSVSVSPGQTARITCSGDALPKKYAYWYQQKSGQAPVLVIYEDNKRPSGIPERFSGSSSGTMATLTISGAQVEDEADYYCYSTDISGNHWVFGGGTELTVLG
no binding (tested: 10 ug/ml): all assays above

From patent US20220403023A1
